Assay results published in PMC4919469.
No constants are given. Whether binding was seen depends on the method and setting. Some results given as binding are weak or reduced against the parent protein; the word gives no strength. Tags and fused reporters may be left off the sequences shown.

The chains behind the UniProt entries cited, without tags or fusion partners. Where a name states a change or a piece, a line headed by the entry shows the natural chain unless it says otherwise. A line that says so, or that is headed by a name, gives the form on record, which may keep a tag or linker.
Cdc42Δ7Q61L (P60953, form named): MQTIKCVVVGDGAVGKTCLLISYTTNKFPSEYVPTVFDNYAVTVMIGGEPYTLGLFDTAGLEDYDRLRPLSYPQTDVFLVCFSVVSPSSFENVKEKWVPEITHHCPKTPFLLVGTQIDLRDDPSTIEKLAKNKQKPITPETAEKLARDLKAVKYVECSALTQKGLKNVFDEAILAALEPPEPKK

Molecular target: Cdc42Δ7Q61L (human) (UniProt P60953)
Assay: NMR titration; 15N and 13C HSQC at 25 °C in 50 mM sodium phosphate, pH 5.5, 25 mM NaCl, 5 mM MgCl2, 5 mM DTT, 10% D2O; 15N-HR1 with unlabelled Cdc42Δ7Q61L·GMPPNP, or 15N-Cdc42Δ7Q61L·GMPPNP with unlabelled HR1 and/or N-WASP GBD; both purified

B1: TOCA1 HR1 domain (residues 330–426), untagged (domain or fragment, UniProt Q6GUF4 330-426)
chain: KGPALEDFSHLPPEQRRKRLQQRIDELSRELQKEMDQKDALNKMKDVYEKNPQMGDPSSLHPKIAETTSNIERLRMEIHKNEAWLSEVEGKVSQRSE
- binding: binds weakly
